Data: the supplement of paper PMC11264405

Columns and labels:
Assay in all cases: minimum inhibitory concentration
linezolid = compound: CC(=O)NC[C@H]1CN(c2ccc(N3CCOCC3)c(F)c2)C(=O)O1 [linezolid]
clindamycin = compound: CCC[C@@H]1C[C@@H](C(=O)N[C@@H]([C@H]2O[C@H](SC)[C@H](O)[C@@H](O)[C@H]2O)[C@H](C)Cl)N(C)C1 [clindamycin]
fidaxomicin = compound: CCc1c(Cl)c(O)c(Cl)c(O)c1C(=O)O[C@H]1[C@H](O)[C@H](OC)[C@H](OC/C2=C\C=C\C[C@H](O)/C(C)=C/[C@H](CC)[C@@H](O[C@@H]3OC(C)(C)[C@@H](OC(=O)C(C)C)[C@H](O)[C@@H]3O)/C(C)=C/C(C)=C/C[C@@H]([C@@H](C)O)OC2=O)O[C@@H]1C [fidaxomicin]
tigecycline = compound: CN(C)c1cc(NC(=O)CNC(C)(C)C)c(O)c2c1C[C@H]1C[C@H]3[C@H](N(C)C)C(O)=C(C(N)=O)C(=O)[C@@]3(O)C(O)=C1C2=O [tigecycline]
vancomycin = compound: CN[C@H](CC(C)C)C(=O)N[C@H]1C(=O)N[C@@H](CC(N)=O)C(=O)N[C@H]2C(=O)N[C@H]3C(=O)N[C@H](C(=O)N[C@H](C(=O)O)c4cc(O)cc(O)c4-c4cc3ccc4O)[C@H](O)c3ccc(c(Cl)c3)Oc3cc2cc(c3O[C@@H]2O[C@H](CO)[C@@H](O)[C@H](O)[C@H]2O[C@H]2C[C@](C)(N)[C@H](O)[C@H](C)O2)Oc2ccc(cc2Cl)[C@H]1O [vancomycin]
rifampicin = compound: CO[C@H]1/C=C/O[C@@]2(C)Oc3c(C)c(O)c4c(O)c(c(/C=N/N5CCN(C)CC5)c(O)c4c3C2=O)NC(=O)/C(C)=C\C=C\[C@H](C)[C@H](O)[C@@H](C)[C@@H](O)[C@@H](C)[C@H](OC(C)=O)[C@@H]1C [rifampicin]
imipenem = compound: C[C@@H](O)[C@H]1C(=O)N2C(C(=O)O)=C(SCCNC=N)C[C@H]12 [imipenem]
meropenem = compound: C[C@@H](O)[C@H]1C(=O)N2C(C(=O)O)=C(S[C@@H]3CN[C@H](C(=O)N(C)C)C3)[C@H](C)[C@H]12 [meropenem]
metronidazole = compound: Cc1ncc([N+](=O)[O-])n1CCO [metronidazole]

| Test System | minimum inhibitory concentration (linezolid) | minimum inhibitory concentration (clindamycin) | minimum inhibitory concentration (fidaxomicin) | minimum inhibitory concentration (tigecycline) | minimum inhibitory concentration (vancomycin) | minimum inhibitory concentration (rifampicin) | minimum inhibitory concentration (imipenem) | minimum inhibitory concentration (meropenem) | minimum inhibitory concentration (metronidazole) |
| --- | --- | --- | --- | --- | --- | --- | --- | --- | --- |
| Clostridioides difficile PCR ribotype 039 isolate #147 (European region: North, country: UK, isolate source: Human, ribotype: 039) | 2 µg/mL | 4 µg/mL | 0.002 µg/mL | < 0.03 µg/mL | 1 µg/mL | < 0.001 µg/mL | 4 µg/mL | 4 µg/mL | 0.25 µg/mL |
| Clostridioides difficile PCR ribotype 039 isolate #149 (European region: East, country: Poland, isolate source: Human, ribotype: 039) | 2 µg/mL | > 128 µg/mL | 0.06 µg/mL | < 0.03 µg/mL | 0.5 µg/mL | < 0.001 µg/mL | 4 µg/mL | 4 µg/mL | 0.25 µg/mL |
| Clostridioides difficile PCR ribotype 039 isolate #150 (European region: South, country: Italy, isolate source: Human, ribotype: 039) | 2 µg/mL | 4 µg/mL | 0.06 µg/mL | 0.06 µg/mL | 0.25 µg/mL | < 0.001 µg/mL | 4 µg/mL | 4 µg/mL | 1 µg/mL |
| Clostridioides difficile PCR ribotype 039 isolate #151 (European region: North, country: UK, isolate source: Human, ribotype: 039) | 2 µg/mL | 16 µg/mL | 0.125 µg/mL | < 0.03 µg/mL | 0.5 µg/mL | < 0.001 µg/mL | 4 µg/mL | 4 µg/mL | 0.25 µg/mL |
| Clostridioides difficile PCR ribotype 039 isolate #152 (European region: North, country: UK, isolate source: Human, ribotype: 039) | 2 µg/mL | > 128 µg/mL | 0.125 µg/mL | < 0.03 µg/mL | 0.5 µg/mL | < 0.001 µg/mL | 4 µg/mL | 1 µg/mL | 0.5 µg/mL |
| Clostridioides difficile PCR ribotype 039 isolate #153 (European region: North, country: UK, isolate source: Human, ribotype: 039) | 2 µg/mL | > 128 µg/mL | 0.06 µg/mL | < 0.03 µg/mL | 1 µg/mL | < 0.001 µg/mL | 4 µg/mL | 4 µg/mL | 0.25 µg/mL |
| Clostridioides difficile PCR ribotype 039 isolate #154 (European region: South, country: Spain, isolate source: Human, ribotype: 039) | 2 µg/mL | 64 µg/mL | 0.06 µg/mL | 0.06 µg/mL | 0.5 µg/mL | < 0.001 µg/mL | 4 µg/mL | 4 µg/mL | 0.5 µg/mL |
| Clostridioides difficile PCR ribotype 039 isolate #155 (European region: South, country: Spain, isolate source: Human, ribotype: 039) | 2 µg/mL | 1 µg/mL | 0.06 µg/mL | 0.06 µg/mL | 0.5 µg/mL | < 0.001 µg/mL | 4 µg/mL | 4 µg/mL | 0.5 µg/mL |
| Clostridioides difficile PCR ribotype 039 isolate #156 (European region: North, country: UK, isolate source: Human, ribotype: 039) | 0.5 µg/mL | > 128 µg/mL | 0.06 µg/mL | < 0.03 µg/mL | 0.5 µg/mL | < 0.001 µg/mL | 2 µg/mL | 4 µg/mL | 0.25 µg/mL |
| Clostridioides difficile PCR ribotype 039 isolate #157 (European region: South, country: Spain, isolate source: Human, ribotype: 039) | 2 µg/mL | > 128 µg/mL | 0.06 µg/mL | 0.015 µg/mL | 0.5 µg/mL | 0.002 µg/mL | 2 µg/mL | 4 µg/mL | < 0.125 µg/mL |
| Clostridioides difficile PCR ribotype 039 isolate #158 (European region: South, country: Spain, isolate source: Human, ribotype: 039) | 2 µg/mL | > 128 µg/mL | 0.06 µg/mL | < 0.03 µg/mL | 1 µg/mL | 0.002 µg/mL | 4 µg/mL | 4 µg/mL | 0.25 µg/mL |
| Clostridioides difficile PCR ribotype 039 isolate #159 (European region: South, country: Spain, isolate source: Human, ribotype: 039) | 2 µg/mL | 4 µg/mL | 0.03 µg/mL | < 0.03 µg/mL | 0.5 µg/mL | 0.002 µg/mL | 4 µg/mL | 4 µg/mL | 0.25 µg/mL |
| Clostridioides difficile PCR ribotype 039 isolate #160 (European region: East, country: Poland, isolate source: Human, ribotype: 039) | 2 µg/mL | > 128 µg/mL | 0.03 µg/mL | 0.06 µg/mL | 0.5 µg/mL | < 0.001 µg/mL | 4 µg/mL | 4 µg/mL | 0.25 µg/mL |
| Clostridioides difficile PCR ribotype 045 isolate #161 (European region: East, country: Poland, isolate source: Human, ribotype: 045) | 2 µg/mL | > 128 µg/mL | 0.004 µg/mL | < 0.03 µg/mL | 0.5 µg/mL | < 0.001 µg/mL | 2 µg/mL | 2 µg/mL | < 0.125 µg/mL |
| Clostridioides difficile PCR ribotype 045 isolate #314 (European region: East, country: Slovakia, isolate source: Animal, ribotype: 045) | 2 µg/mL | > 128 µg/mL | 0.004 µg/mL | < 0.03 µg/mL | 1 µg/mL | < 0.001 µg/mL | 2 µg/mL | 2 µg/mL | 0.25 µg/mL |
| Clostridioides difficile PCR ribotype 045 isolate #315 (European region: East, country: Slovakia, isolate source: Animal, ribotype: 045) | 4 µg/mL | 1 µg/mL | 0.008 µg/mL | 0.06 µg/mL | 0.5 µg/mL | < 0.001 µg/mL | 4 µg/mL | 2 µg/mL | < 0.125 µg/mL |
| Clostridioides difficile PCR ribotype 045 isolate #316 (European region: East, country: Slovakia, isolate source: Animal, ribotype: 045) | 4 µg/mL | > 128 µg/mL | 0.008 µg/mL | 0.06 µg/mL | 0.5 µg/mL | < 0.001 µg/mL | 4 µg/mL | 2 µg/mL | < 0.125 µg/mL |
| Clostridioides difficile PCR ribotype 045 isolate #317 (European region: East, country: Slovakia, isolate source: Animal, ribotype: 045) | 2 µg/mL | > 128 µg/mL | 0.008 µg/mL | < 0.03 µg/mL | 1 µg/mL | < 0.001 µg/mL | 2 µg/mL | 2 µg/mL | 0.25 µg/mL |
| Clostridioides difficile PCR ribotype 045 isolate #318 (European region: East, country: Slovakia, isolate source: Animal, ribotype: 045) | 2 µg/mL | > 128 µg/mL | 0.008 µg/mL | < 0.03 µg/mL | 1 µg/mL | < 0.001 µg/mL | 2 µg/mL | 2 µg/mL | 0.25 µg/mL |
| Clostridioides difficile PCR ribotype 045 isolate #319 (European region: East, country: Slovakia, isolate source: Animal, ribotype: 045) | 2 µg/mL | > 128 µg/mL | 0.004 µg/mL | < 0.03 µg/mL | 1 µg/mL | < 0.001 µg/mL | 2 µg/mL | 2 µg/mL | 0.25 µg/mL |
| Clostridioides difficile PCR ribotype 045 isolate #320 (European region: East, country: Slovakia, isolate source: Animal, ribotype: 045) | 4 µg/mL | > 128 µg/mL | 0.008 µg/mL | 0.06 µg/mL | 0.5 µg/mL | < 0.001 µg/mL | 2 µg/mL | 2 µg/mL | < 0.125 µg/mL |
| Clostridioides difficile PCR ribotype 045 isolate #321 (European region: East, country: Slovakia, isolate source: Animal, ribotype: 045) | 2 µg/mL | > 128 µg/mL | 0.004 µg/mL | 0.06 µg/mL | 0.5 µg/mL | < 0.001 µg/mL | 1 µg/mL | 2 µg/mL | < 0.125 µg/mL |
| Clostridioides difficile PCR ribotype 045 isolate #322 (European region: West, country: Netherlands, isolate source: Animal, ribotype: 045) | 2 µg/mL | 2 µg/mL | 0.008 µg/mL | 0.06 µg/mL | 0.5 µg/mL | < 0.001 µg/mL | 1 µg/mL | 2 µg/mL | < 0.125 µg/mL |
| Clostridioides difficile PCR ribotype 045 isolate #323 (European region: East, country: Poland, isolate source: Animal, ribotype: 045) | 4 µg/mL | > 128 µg/mL | 0.008 µg/mL | 0.06 µg/mL | 0.5 µg/mL | < 0.001 µg/mL | 2 µg/mL | 2 µg/mL | 0.25 µg/mL |
| Clostridioides difficile PCR ribotype 046 isolate #162 (European region: North, country: UK, isolate source: Human, ribotype: 046) | 2 µg/mL | 8 µg/mL | 0.008 µg/mL | 0.06 µg/mL | 0.5 µg/mL | < 0.001 µg/mL | 4 µg/mL | 4 µg/mL | < 0.125 µg/mL |
| Clostridioides difficile PCR ribotype 046 isolate #163 (European region: South, country: Spain, isolate source: Human, ribotype: 046) | 2 µg/mL | 64 µg/mL | 0.03 µg/mL | 0.06 µg/mL | 0.5 µg/mL | < 0.001 µg/mL | 4 µg/mL | 2 µg/mL | 0.25 µg/mL |

Complete entries as entered above. Values in the order: minimum inhibitory concentration (linezolid) | minimum inhibitory concentration (clindamycin) | minimum inhibitory concentration (fidaxomicin) | minimum inhibitory concentration (tigecycline) | minimum inhibitory concentration (vancomycin) | minimum inhibitory concentration (rifampicin) | minimum inhibitory concentration (imipenem) | minimum inhibitory concentration (meropenem) | minimum inhibitory concentration (metronidazole)
Clostridioides difficile PCR ribotype 039 isolate #158 (European region: South, country: Spain, isolate source: Human, ribotype: 039) in the list: 2 µg/mL | > 128 µg/mL | 0.06 µg/mL | < 0.03 µg/mL | 1 µg/mL | 0.002 µg/mL | 4 µg/mL | 4 µg/mL | 0.25 µg/mL
Clostridioides difficile PCR ribotype 039 isolate #160 (European region: East, country: Poland, isolate source: Human, ribotype: 039) in the list: 2 µg/mL | > 128 µg/mL | 0.03 µg/mL | 0.06 µg/mL | 0.5 µg/mL | < 0.001 µg/mL | 4 µg/mL | 4 µg/mL | 0.25 µg/mL
